Data on 4 molecules can be found in PMC8961908.

The chains behind the UniProt entries cited, without tags or fusion partners.
UniProt O95197: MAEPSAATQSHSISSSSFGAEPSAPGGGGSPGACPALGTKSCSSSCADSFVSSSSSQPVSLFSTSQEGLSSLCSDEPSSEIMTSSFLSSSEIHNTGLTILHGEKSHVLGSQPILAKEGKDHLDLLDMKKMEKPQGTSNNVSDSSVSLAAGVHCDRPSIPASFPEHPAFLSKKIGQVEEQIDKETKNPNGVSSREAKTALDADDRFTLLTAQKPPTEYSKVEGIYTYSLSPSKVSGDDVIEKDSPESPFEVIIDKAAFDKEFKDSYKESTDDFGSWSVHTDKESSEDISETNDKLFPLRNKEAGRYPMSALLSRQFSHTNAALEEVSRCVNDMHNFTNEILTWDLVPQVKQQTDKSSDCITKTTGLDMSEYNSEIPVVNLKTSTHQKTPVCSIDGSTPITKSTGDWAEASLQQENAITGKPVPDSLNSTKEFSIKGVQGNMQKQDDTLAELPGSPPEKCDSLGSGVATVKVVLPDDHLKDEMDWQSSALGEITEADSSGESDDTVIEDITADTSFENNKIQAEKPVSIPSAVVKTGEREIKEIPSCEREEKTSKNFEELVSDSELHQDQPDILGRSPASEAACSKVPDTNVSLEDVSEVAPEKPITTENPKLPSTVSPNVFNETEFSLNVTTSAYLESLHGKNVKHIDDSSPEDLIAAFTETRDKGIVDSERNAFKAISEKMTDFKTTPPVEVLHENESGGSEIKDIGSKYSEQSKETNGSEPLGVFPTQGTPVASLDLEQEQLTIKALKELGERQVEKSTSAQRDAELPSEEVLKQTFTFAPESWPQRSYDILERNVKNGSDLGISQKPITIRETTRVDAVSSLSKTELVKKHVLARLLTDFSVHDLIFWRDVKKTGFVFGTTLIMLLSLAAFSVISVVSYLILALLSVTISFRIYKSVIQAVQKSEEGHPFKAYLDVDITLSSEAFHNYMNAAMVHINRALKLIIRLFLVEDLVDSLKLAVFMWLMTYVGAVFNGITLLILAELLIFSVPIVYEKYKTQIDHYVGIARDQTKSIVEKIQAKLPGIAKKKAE

The target in assay [1] is ADP-ribosylation factor-like 6 interacting protein 1 (ARL6IP1), endogenously C-terminally tagged (human (endogenous in U-2 OS)) (UniProt Q15041). As to the kind of experiment: affinity purification with mass spectrometry; tandem-affinity purification of endogenously tagged ARL6IP1 from U-2 OS lysate (1% NP-40 lysis buffer): anti-FLAG M2 agarose, elution with 3xFLAG peptide, then SPOT-trap magnetic agarose, 4 °C; in-gel tryptic digestion and label-free quantitation; unmodified U-2 OS cells as negative control.

The target is the same in assay [2]. The description is as above. This is another data set of the same source.

Like-named read-outs stand apart in the source and are kept apart here. These are yes or no findings as the source states them, for the method shown. Binding seen in cells or lysates may run through a third protein. Here binding means that the protein was enriched with, or labelled near, the bait; the list need not be complete. For some of these results: Tags and fused reporters may be left off the sequences shown.

Take “reticulon 3 (RTN3) (from UniProt O95197 1-1032)”: the binding result in assay [1] is “binds”.

B1: inositol polyphosphate 5-phosphatase K (INPP5K) (enzyme, UniProt Q9BT40 1-448)
chain: MSSRKLSGPKGRRLSIHVVTWNVASAAPPLDLSDLLQLNNRNLNLDIYVIGLQELNSGIISLLSDAAFNDSWSSFLMDVLSPLSFIKVSHVRMQGILLLVFAKYQHLPYIQILSTKSTPTGLFGYWGNKGGVNICLKLYGYYVSIINCHLPPHISNNYQRLEHFDRILEMQNCEGRDIPNILDHDLIIWFGDMNFRIEDFGLHFVRESIKNRCYGGLWEKDQLSIAKKHDPLLREFQEGRLLFPPTYKFDRNSNDYDTSEKKRKPAWTDRILWRLKRQPCAGPDTPIPPASHFSLSLRGYSSHMTYGISDHKPVSGTFDLELKPLVSAPLIVLMPEDLWTVENDMMVSYSSTSDFPSSPWDWIGLYKVGLRDVNDYVSYAWVGDSKVSCSDNLNQVYIDISNIPTTEDEFLLCYYSNSLRSVVGISRPFQIPPGSLREDPLGEAQPQI
As to B1, the binding entry in assay [2] is reported as “binds”.

B2: oxysterol-binding protein-related protein 8 (ORP8), endogenous (protein, UniProt Q9BZF1 1-889)
chain: MEGGLADGEPDRTSLLGDSKDVLGPSTVVANSDESQLLTPGKMSQRQGKEAYPTPTKDLHQPSLSPASPHSQGFERGKEDISQNKDESSLSMSKSKSESKLYNGSEKDSSTSSKLTKKESLKVQKKNYREEKKRATKELLSTITDPSVIVMADWLKIRGTLKSWTKLWCVLKPGVLLIYKTQKNGQWVGTVLLNACEIIERPSKKDGFCFKLFHPLEQSIWAVKGPKGEAVGSITQPLPSSYLIIRATSESDGRCWMDALELALKCSSLLKRTMIREGKEHDLSVSSDSTHVTFYGLLRANNLHSGDNFQLNDSEIERQHFKDQDMYSDKSDKENDQEHDESDNEVMGKSEESDTDTSERQDDSYIEPEPVEPLKETTYTEQSHEELGEAGEASQTETVSEENKSLIWTLLKQVRPGMDLSKVVLPTFILEPRSFLDKLSDYYYHADFLSEAALEENPYFRLKKVVKWYLSGFYKKPKGLKKPYNPILGETFRCLWIHPRTNSKTFYIAEQVSHHPPISAFYVSNRKDGFCLSGSILAKSKFYGNSLSAILEGEARLTFLNRGEDYVMTMPYAHCKGILYGTMTLELGGTVNITCQKTGYSAILEFKLKPFLGSSDCVNQISGKLKLGKEVLATLEGHWDSEVFITDKKTDNSEVFWNPTPDIKQWRLIRHTVKFEEQGDFESEKLWQRVTRAINAKDQTEATQEKYVLEEAQRQAARDRKTKNEEWSCKLFELDPLTGEWHYKFADTRPWDPLNDMIQFEKDGVIQTKVKHRTPMVSVPKMKHKPTRQQKKVAKGYSSPEPDIQDSSGSEAQSVKPSTRRKKGIELGDIQSSIESIKQTQEEIKRNIMALRNHLVSSTPATDYFLQQKDYFIIFLLILLQVIINFMFK
As for B2, in assay [2], the binding entry is reported as “binds”.

B3: extended-synaptotagmin 1 (E-SYT1) (protein, UniProt Q9BSJ8 1-1104)
chain: MERSPGEGPSPSPMDQPSAPSDPTDQPPAAHAKPDPGSGGQPAGPGAAGEALAVLTSFGRRLLVLIPVYLAGAVGLSVGFVLFGLALYLGWRRVRDEKERSLRAARQLLDDEEQLTAKTLYMSHRELPAWVSFPDVEKAEWLNKIVAQVWPFLGQYMEKLLAETVAPAVRGSNPHLQTFTFTRVELGEKPLRIIGVKVHPGQRKEQILLDLNISYVGDVQIDVEVKKYFCKAGVKGMQLHGVLRVILEPLIGDLPFVGAVSMFFIRRPTLDINWTGMTNLLDIPGLSSLSDTMIMDSIAAFLVLPNRLLVPLVPDLQDVAQLRSPLPRGIIRIHLLAARGLSSKDKYVKGLIEGKSDPYALVRLGTQTFCSRVIDEELNPQWGETYEVMVHEVPGQEIEVEVFDKDPDKDDFLGRMKLDVGKVLQASVLDDWFPLQGGQGQVHLRLEWLSLLSDAEKLEQVLQWNWGVSSRPDPPSAAILVVYLDRAQDLPLKKGNKEPNPMVQLSIQDVTQESKAVYSTNCPVWEEAFRFFLQDPQSQELDVQVKDDSRALTLGALTLPLARLLTAPELILDQWFQLSSSGPNSRLYMKLVMRILYLDSSEICFPTVPGCPGAWDVDSENPQRGSSVDAPPRPCHTTPDSQFGTEHVLRIHVLEAQDLIAKDRFLGGLVKGKSDPYVKLKLAGRSFRSHVVREDLNPRWNEVFEVIVTSVPGQELEVEVFDKDLDKDDFLGRCKVRLTTVLNSGFLDEWLTLEDVPSGRLHLRLERLTPRPTAAELEEVLQVNSLIQTQKSAELAAALLSIYMERAEDLPLRKGTKHLSPYATLTVGDSSHKTKTISQTSAPVWDESASFLIRKPHTESLELQVRGEGTGVLGSLSLPLSELLVADQLCLDRWFTLSSGQGQVLLRAQLGILVSQHSGVEAHSHSYSHSSSSLSEEPELSGGPPHITSSAPELRQRLTHVDSPLEAPAGPLGQVKLTLWYYSEERKLVSIVHGCRSLRQNGRDPPDPYVSLLLLPDKNRGTKRRTSQKKRTLSPEFNERFEWELPLDEAQRRKLDVSVKSNSSFMSRERELLGKVQLDLAETDLSQGVARWYDLMDNKDKGSS
For the molecule B3, in assay [2], the binding result is reported as “binds”.
